The record followed here is article PMC6471077.

These are yes or no findings as the source states them, for the method shown. Some binding calls cover weakened binding; strength is not graded here.

The assay concerns the target T1, bZIP10 (rice (Oryza sativa L.)) (UniProt Q8RZ35).
T1 sequence: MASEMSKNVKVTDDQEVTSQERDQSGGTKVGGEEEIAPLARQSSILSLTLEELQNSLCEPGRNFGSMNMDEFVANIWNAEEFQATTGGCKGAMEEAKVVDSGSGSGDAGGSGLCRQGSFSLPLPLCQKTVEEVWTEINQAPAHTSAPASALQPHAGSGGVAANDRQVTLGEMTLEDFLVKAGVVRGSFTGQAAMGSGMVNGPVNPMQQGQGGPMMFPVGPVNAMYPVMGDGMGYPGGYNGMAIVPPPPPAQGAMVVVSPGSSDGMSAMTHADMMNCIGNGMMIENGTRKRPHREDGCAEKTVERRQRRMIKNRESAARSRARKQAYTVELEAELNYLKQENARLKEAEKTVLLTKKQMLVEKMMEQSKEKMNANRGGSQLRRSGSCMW
Put plainly: two-hybrid; bZIPs as baits in pDEST32, SAPKs as preys in pDEST22 (ProQuest system), co-transformed into yeast Y2HGold; growth on SD/-Trp-Leu-Ade-His with X-alpha-Gal; three repeats, positive only if positive in all three.

B1: SAPK6 (enzyme, UniProt Q6ZI44 1-365)
chain: MEKYELLKDIGSGNFGVARLMRNRETKELVAMKYIPRGLKIDENVAREIINHRSLRHPNIIRFKEVVLTPTHLAIVMEYAAGGELFDRICSAGRFSEDESRYFFQQLICGVSYCHFMQICHRDLKLENTLLDGSPAPRLKICDFGYSKSSLLHSKPKSTVGTPAYIAPEVLSRREYDGKMADVWSCGVTLYVMLVGAYPFEDPDDPKNFRKTIGRIVSIQYKIPEYVHISQDCRQLLSRIFVANPAKRITIREIRNHPWFMKNLPRELTEAAQAKYYKKDNSARTFSDQTVDEIMKIVQEAKTPPPSSTPVAGFGWTEEEEQEDGKNPDDDEGDRDEEEGEEGDSEDEYTKQVKQAHASCDLQKS
As to B1, the binding entry is listed as “binds”.
